No constants are given. Whether binding was seen depends on the method and setting. A result given as binding can be weak or reduced; the word gives no strength.
Molecular target: recombinant murine I-E^k refolded with a cleavable placeholder peptide (I-E^k/ANP 2x6His) (mouse)
Experiment: spectrophotometry after peptide exchange (280 to 488 or 555 or 640 nm ratio); placeholder peptide of refolded I-E^k exchanged for the dye-conjugated peptide under acidic conditions (pH 5.1, 0.2 M citric acid buffer) over 3 days; both purified

B1: β2m endogenous peptide with C-terminal GGSC linker, fluorophore-conjugated (peptide)
peptide: HPPHIEIQMLKNGKKIPGGSC
modifications: C-terminal cysteine conjugated with an Alexa Fluor maleimide dye
**Q.** Which binding does the source give for B1 here?
**A.** The binding was “binds”.

From paper PMC10626418
